Reference: PubChem BioAssay AID686937 (Drosophila RNAi Screening Center, 2013)
Screen: 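Knock-downs that reduce output of a secreted reporter enzyme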 (primary screen). System: Drosophila S2 cells expressing secreted horseradish peroxidase. Reagent: long dsRNA against Drosophila genes. Timing: about 5.5 days (5 days dsRNA, then 12 h reporter induction). Challenge: reporter expression induced after 5 days of dsRNA, read 12 h later; inducer not stated. Measurement: 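Chemiluminescent measurement of peroxidase in the medium 12 h after reporter induction, following 5 days of dsRNA, given as a z-score per plate; higher means more secretion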. Scale: z-score: higher = more reporter secreted into medium.
The deposit covers about 23,000 reagents; this is a random part of those with a known target gene and a result. 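Reduced-secretion tags in replicate 1 do not always agree with the z-scores; no criterion for assigning the tags was given.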 Names joined by + are all predicted targets of the reagent. Not given: the amount of reagent.

gene knocked down	DRSC id	z-score, replicate 1	z-score, replicate 2	z-score, replicate 3	z-score, replicate 4	phenotype, replicate 1
sqz	DRSC16980	0.21	0.31			
GstE11	DRSC06926	0.21	0.15			
mthl7	DRSC10852	0.37	-0.04			
CG10254	DRSC14153	-0.07	-0.38			
CG32772	DRSC18052	0.48	0.39	0.22	0.13	reduced secretion
CG32772	DRSC18406	0.29	0.14			
CG32772	DRSC22349	-0.27	-0.33			
CG32262	DRSC08165	0.41	0.32			
CG12084	DRSC08247	0.45	0.24			
alphaTub85E	DRSC16899	-4.4	-4.44			reduced secretion
CR30029	DRSC06724	0.26	0.33			
CG4676	DRSC06879	0.24	-0.18			
Blm + CG14721	DRSC14943	0.29	0.49			
frma	DRSC18297	0.36	0.27			
AANATL7	DRSC18616	0.23	0.23			
Drsl5	DRSC08159	0.06	0.17			
Corin	DRSC06818	0.31	0.41	0.95	0.93	
Rh6	DRSC16823	0.46	0.37			
CG6738	DRSC16104	0.27	0.33			
eIF3b	DRSC06900	-2.99	-1.31			reduced secretion
Irp-1B	DRSC16720	0.16	0.43			
mRpL30	DRSC18416	-0.71	-1.25			
CG13102 + Rcd-1r	DRSC03266	0.38	0.19			
CG1105	DRSC12528	0.24	-0.05			
Ugt36D1	DRSC02600	0.18	0.29			
ubl	DRSC04998	-0.2	-0.06			
CG14760	DRSC06495	0.17	0.19			
Pat1	DRSC17750	0.43	0.32			
CG11626	DRSC14336	0.31	0.01			
Gfrl	DRSC15196	0.28	0.06			
Gfrl	DRSC15197	0.32	0.26			
Gfrl	DRSC15199	0.33	0.46			
Gfrl	DRSC15565	0.15	0.37			
Gfrl	DRSC15719	0.08	-0.28			
Hsp60C	DRSC03036	0.49	0.19			
Pgm1	DRSC10490	0.27	0.33			
CG15914	DRSC19739	0.47	0.62			
SIFa	DRSC04480	0.26	0.19			
CG10589	DRSC11629	0.51	0.48			
CG5808	DRSC14124	-0.22	-0.13			
Mcad	DRSC09871	0.56	0.41			
CG34033	DRSC05190	-0.06				
EMC7	DRSC07162	0.21	0.33			
Syt7	DRSC17130	0.42	0.26			
Syt7	DRSC17159	0.47	0.49			
CG14840	DRSC14964	0.37	0.11			
hyd	DRSC16971	0.43	0.17			
Bfc	DRSC08623	0.3	0.12			
Cpr76Ba	DRSC11060	0.08	-0.52			
REG	DRSC20273	0.26	0.73			
Phf5a	DRSC03261	-0.92	-0.32			
Peritrophin-A	DRSC20570	0.3	0.32			
Sirt4	DRSC18290	0.28	0.09			
CG42537	DRSC12519	0.42	0.46			
Vti1a	DRSC08563	0.05	-0.96			
capt	DRSC00676	0.23	0.4			
capt	DRSC00806	-0.44	-0.25			
CG3280 (retired record)	DRSC10356	0.34	0.35			
SoYb	DRSC02901	-0.29	0.3			
Or67b	DRSC11241	0.29	0.25			
CG10298	DRSC12522	0.11	0.34			
pcs	DRSC07042	0.28	0.43			
Sry-alpha	DRSC16867	-1.34	0.04	-0.04	-0.69	
NijC	DRSC14851	0.14	-0.17			
Psi	DRSC07519	-0.25	-0.07			
Lcp65Aa	DRSC11209	0.16	0.39			
BomBc1	DRSC06501	0.17	0.23			
Spred	DRSC05976	0.23	0.33			
CG18336	DRSC06334	0.16	-0.01			
CG32075	DRSC10622	0.15	0.28			
CG14408	DRSC19595	0.5	0.4			
CG4186	DRSC11753	0.25	-0.07			
CG15237	DRSC04971	0.13	0.26			
CG12009	DRSC08217	0.41	0.33			
CG30440	DRSC04775	-0.4				
CG30440	DRSC04845	0.6	0.36			
CG30440	DRSC04855	0.52	0.41			
CG11404	DRSC11656	-0.65	0.25			
CG42354 + CG42353	DRSC20172	-0.79	-0.79			
sit	DRSC15760	-1.04	0.34			
zfh1	DRSC14014	-0.32	-0.09	-0.57	-0.36	
zfh1	DRSC17098	-0.76	-0.57			

8 entries already listed, ordered by “z-score, replicate 1”, ascending.
gene knocked down	DRSC id	z-score, replicate 1	z-score, replicate 2	z-score, replicate 3	z-score, replicate 4	phenotype, replicate 1
CG30440	DRSC04775	-0.4				
CG15237	DRSC04971	0.13	0.26			
CG32075	DRSC10622	0.15	0.28			
CG4186	DRSC11753	0.25	-0.07			
CG12009	DRSC08217	0.41	0.33			
CG14408	DRSC19595	0.5	0.4			
CG30440	DRSC04855	0.52	0.41			
CG30440	DRSC04845	0.6	0.36			
